Measured values as given in patent publication US20140187745 (published 2014).

Key:
[1] = general procedure: Fmoc solid-phase peptide synthesis; 2-Cl-Trt resin; conditions: whole synthesis, trifluoroacetate
[2] = general procedure: Fmoc solid-phase peptide synthesis; Wang resin; conditions: whole synthesis, trifluoroacetate
[3] = analytical liquid chromatography, scale of the general procedure 0.5 Kg of Fmoc-Leu-Wang resin

| Substance | crude purity (method not given) [1, 3] | crude yield ([1]; scale of the general procedure 0.5 Kg of Fmoc-Leu-Wang resin) | crude mass [1] | final HPLC purity [2, 3] | isolated yield ([2]; total yield, scale of the general procedure 0.5 Kg of Fmoc-Leu-Wang resin) | isolated mass [2] |
| --- | --- | --- | --- | --- | --- | --- |
| Fmoc-GGGG-OH | 98.3% | 97.2% | 457 g |  |  |  |
| D-Phe-Pro-Arg-Pro-Gly-Gly-Gly-Gly-Asn-Gly-Asp-Phe-Glu-Glu-Ile-Pro-Glu-Glu-Tyr-Leu-OH |  |  |  | 99.8% | 55.8% | 608 g |

The star is where a group is joined. Fmoc = O=C(OCC1c2ccccc2-c2ccccc21)*
